Laboratory results from patent publication US20040014174.
For at least one entry, the source does not settle the construct or the ends of the probe. For part of these data: Weaker means in comparison with the reference protein, sequence or condition of that experiment.

Columns and labels:
[1] = tested on: psbA 5'UTR-specific nuclear-encoded protein complex (heparin-agarose purified) (Chlamydomonas reinhardtii); assay: competition with a labelled probe; details: purified native protein, protein details: heparin-agarose purified fraction, variant of psbA 5'UTR wild type
[2] = tested on: psbA 5'UTR-specific nuclear-encoded protein complex (heparin-agarose purified) (Chlamydomonas reinhardtii); assay: EMSA; details: 4 mM MgCl2, 100 mM KOAc, pH 7.5, room temperature, wheat germ tRNA competitor; 250-fold unlabeled RNA competes; purified native protein; protein details: heparin-agarose purified fraction; label: 32P
[3] = tested on: chloroplast 30S ribosomal subunit (Chlamydomonas reinhardtii); assay: footprint; details: toeprint with E. coli tRNAfMet, 37 C; pauses 12 nt 3' of SD and of AUG; purified native protein; protein details: high-salt washed, sucrose gradient
[4] = unlabeled mutant RNA competes wild type

Q: Does “UUACAAAUUAAAACUUUAAAAAAAUUAACAUAUG [psbA 5'UTR RBS-del]” bind ([1]; unlabeled mutant RNA competes wild type, each mutant stated as recognized)?
A: binds

Q: Does “UUACCCAGAAAUUAAAACUUUAAAAAAAUUAACAUAUG [psbA 5'UTR RBS-Alt]” bind [1, 4]?
A: binds

Q: Does “UUACGGAGAAAAAAAAUUAACAUAUG [psbA 5'UTR RBS-15]” bind [1, 4]?
A: binds

Q: Does “UUACGGAGAAAAACUUUAAAAAAAUUAACAUAUG [psbA 5'UTR RBS-23]” bind [1, 4]?
A: binds

Q: Does “UUACGGAGAAAUUAAAACUUUAAAAAAAUUAACAUAUG [psbA 5'UTR wild type]” bind [2]?
A: binds

Q: Does “UUACGGAGAAAUUAAAACUUUAAAAAAAUUAACAUAUG [psbA D1-HA transcript (5' end of psbA mRNA)]” bind [3]?
A: binds

Q: Does “UUACGGAGAAAUUAAAACUUUAGGAGGAUUAACAUAUG [psbA 5'UTR SD-Add (RBS-Add)]” bind [1, 4]?
A: binds

Q: Does “UUACGGAGAAAUUAAACAUAUG [psbA 5'UTR RBS-11]” bind ([1]; recognized but failed to fully compete wild type RNA)?
A: binds more weakly

Q: Does “UUACGGAGACUUUAAAAAAAUUAACAUAUG [psbA 5'UTR RBS-19]” bind [1, 4]?
A: binds
